Experimental data as given in PubChem BioAssay AID743255 (National Center for Advancing Translational Sciences (NCATS), 2014).
Among all 390,000 compounds or so, about 910 (0.23%) were called active. Inconclusive means that the source gave no clear call. Such entries were picked first, then a sample of the others. Calls follow the shape of the dose curve; as a rule, active = well fitted inhibition curve with a large enough effect; inconclusive = small, poorly fitted or top-dose-only effect; inactive = no such curve, though single readings can be large or run the other way. Where the call is inconclusive, the potency comes from a doubtful curve fit.

Protein sequences, listed by entry. Tags and fused reporters are not part of them. Lines headed by an entry give the natural chain unless they say otherwise; changes in a name come on top.
UniProt O94782: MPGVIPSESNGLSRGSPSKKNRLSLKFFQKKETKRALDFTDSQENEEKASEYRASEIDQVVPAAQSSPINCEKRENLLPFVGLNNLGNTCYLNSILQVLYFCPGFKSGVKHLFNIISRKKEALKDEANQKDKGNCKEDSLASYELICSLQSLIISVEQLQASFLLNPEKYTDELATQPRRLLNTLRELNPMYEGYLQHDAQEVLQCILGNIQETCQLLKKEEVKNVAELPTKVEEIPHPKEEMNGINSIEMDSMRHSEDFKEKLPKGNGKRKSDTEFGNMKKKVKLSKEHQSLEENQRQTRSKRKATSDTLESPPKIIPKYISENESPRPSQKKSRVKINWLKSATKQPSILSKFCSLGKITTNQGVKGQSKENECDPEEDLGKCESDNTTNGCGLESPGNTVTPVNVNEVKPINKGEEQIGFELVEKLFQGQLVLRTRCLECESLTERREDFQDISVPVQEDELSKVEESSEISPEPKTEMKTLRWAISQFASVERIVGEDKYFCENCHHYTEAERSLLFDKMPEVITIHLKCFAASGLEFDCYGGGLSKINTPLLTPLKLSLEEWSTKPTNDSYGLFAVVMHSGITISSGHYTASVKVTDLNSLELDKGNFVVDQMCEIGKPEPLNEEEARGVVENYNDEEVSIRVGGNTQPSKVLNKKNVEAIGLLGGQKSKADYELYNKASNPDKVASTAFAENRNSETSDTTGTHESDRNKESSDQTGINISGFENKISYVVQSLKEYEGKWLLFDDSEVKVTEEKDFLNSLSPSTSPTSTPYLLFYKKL

Molecular target: Ubiquitin carboxyl-terminal hydrolase 1 (Homo sapiens) (UniProt O94782)
Assay: Inhibitors of USP1/UAF1: Primary Screen; also: nearly all actives have a fitted effect of over 60% in size
Details: recombinant USP1/UAF1, Ub-Rhodamine cleavage fluorescence; activity change, negative = inhibition: at 57.1 µM (top of the series)
Method in brief: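 USP1/UAF1 complex at 1 nM was preincubated with compound for 15 min at room temperature, then Ub-Rho substrate (150nM final) was added. Fluorescence (480/540 nm) was read kinetically, 6 reads every 60 seconds.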
% is scaled to controls: 0 for no effect and ±100 for the full control effect; potency is read from the fitted curve at half-maximal effect.

SMILES	Potency	activity change, negative = inhibition
Cc1nn(C)c(C(=O)NN)c1Cl	inconclusive: 10 µM [inhibitor, partial curve]	–
Cc1nc(-c2ccccc2)sc1C1(C)CC(c2cccc([N+](=O)[O-])c2)=NO1 (stereo unspecified)	–	inactive: -28%
Nc1ccc(Cc2ccc([N+](=O)[O-])cc2)cc1	–	inactive: -9.8%
CCN1CCN(c2ccc(NC(=O)c3cc(S(=O)(=O)N4CCCC4)ccc3Cl)cc2)CC1	–	inactive: -21.9%
Cc1ccc(C)n1-c1ccc(N(C)C)cc1	inconclusive: 282 µM [inhibitor, partial curve, poor fit]	–
O=C1Nc2ccccc2C1(O)C/C(=N/O)c1ccccc1 (stereo unspecified)	–	inactive: -15.7%
CCN(CC)S(=O)(=O)c1cccc(-c2nnc(C(=O)c3ccc(C(F)(F)F)cc3)o2)c1	inconclusive: 50.1 µM [inhibitor, single point]	–
Cc1ccccc1C(=O)n1nc(-c2cccnc2)nc1NCc1ccc(F)cc1	–	inactive: -12%
Cc1nc2c(C)cccn2c(=O)c1NC(=O)c1ccco1	inconclusive: 39.8 µM [inhibitor, single point]	–
CN1CCN(CCCNC(=O)CCN2C(=O)COc3ccccc32)CC1	inconclusive: 50.1 µM [inhibitor, partial curve, poor fit]	–
Cc1ccc(NC(=O)COC(=O)COc2cccc3c2OC(C)(C)C3)cc1C	inconclusive: 50.1 µM [inhibitor, partial curve, poor fit]	–
CCCN1CCN(C(=O)Cn2ncc3c4ccccc4n(Cc4cccc(Cl)c4)c3c2=O)CC1	inconclusive: 35.5 µM [inhibitor, partial curve, poor fit]	–
CC(=C\c1ccccc1)/C=C1/SC(=S)N(C(C(=O)O)C(C)C)C1=O (stereo unspecified)	–	inactive: -21.1%
CC1CC(=O)N(CC(=O)Nc2ccc(OC(F)(F)F)cc2)c2ccccc2S1 (stereo unspecified)	–	inactive: -31.4%
O=C(Nc1nc(-c2cc(Cl)sc2Cl)cs1)c1cccs1	inconclusive: 17.8 µM [inhibitor, partial curve, poor fit]	–
CC(=S)/C=C1\Sc2ccccc2N1C	inconclusive: 0.794 µM [inhibitor, full curve, poor fit]	–
CCC(=O)Nc1ccccc1C(=O)OCc1cc(=O)n2cc(C)sc2n1	–	inactive: -5.53%
CCC(C)[C@H]1CNC(=S)N1CCc1cc(C(F)(F)F)cc(C(F)(F)F)c1 (stereo partly specified)	inconclusive: 35.5 µM [inhibitor, partial curve, poor fit]	–
CC1C(=O)N(Cc2cn(CCC3OCCO3)nn2)CCS(=O)(=O)N1Cc1ccc(-c2ccc(F)cc2)cc1 (stereo unspecified)	inconclusive: 0.282 µM [inhibitor, full curve, poor fit]	–
O=C(Nc1cccc(Cl)c1)c1ccncc1	–	inactive: -20.4%
C=CCn1c(=O)c2ccccc2n2c(SCC(C)=O)nnc12	inconclusive: 50.1 µM [inhibitor, partial curve, poor fit]	–
COc1ccc(N(C)S(=O)(=O)c2ccc3c(c2)n(C)c(=O)c(=O)n3C)cc1	inconclusive: 44.7 µM [inhibitor, partial curve, poor fit]	–

SMILES	Potency	activity change, negative = inhibition
O=C(NCCNc1ccc([N+](=O)[O-])cc1)c1ccco1	inconclusive: 7.94 µM [inhibitor, partial curve, poor fit]	–
COc1ccc(Cl)cc1C(=O)NCCc1ccc(S(=O)(=O)NC(=O)NC2CCCCC2)cc1	inconclusive: 70.8 µM [inhibitor, partial curve, poor fit]	–
CCN1CCOC(=O)C1CC(=O)Nc1cc(Cl)ccc1C (stereo unspecified)	–	inactive: -14.6%
COc1ccccc1NC(=O)Cn1c(=O)n(Cc2nc(C)no2)c(=O)c2cc3c(cc21)OCO3	inconclusive: 2.82 µM [inhibitor, partial curve]	–
O=C(Nc1ccccc1-c1nc2ccccc2s1)c1ccco1	inconclusive: 15.8 µM [inhibitor, partial curve]	–
O=C(Nc1ccc(NC(=O)C2CCCCC2)nc1)c1ccccn1	inconclusive: 20 µM [inhibitor, single point]	–
CCCCN(C)CC(O)Cn1cc(/C=C/C(=O)c2ccc(OCC)cc2)c2ccccc21 (stereo unspecified)	inconclusive: 35.5 µM [inhibitor, single point]	–
c1coc(-c2nnc(-c3ccco3)nn2)c1	active: 25.1 µM	–
COc1ccc(CCNC(=O)C(=O)Nc2ccc(C)c(C)c2)cc1OC	inconclusive: 44.7 µM [inhibitor, partial curve, poor fit]	–
O=C(O)CC1S/C(=N/N=C/c2ccc([N+](=O)[O-])cc2)N(c2ccc(O)cc2)C1=O (stereo unspecified)	inconclusive: 6.31 µM [inhibitor, full curve, poor fit]	–
Cc1ccc(CNC(=O)C2CC(c3cccc([N+](=O)[O-])c3)=NO2)o1 (stereo unspecified)	inconclusive: 44.7 µM [inhibitor, partial curve, poor fit]	–
COC(=O)c1c(NC(=O)COC(=O)c2ccc(Cl)cc2[N+](=O)[O-])sc2c1CCCCC2	–	inactive: -6.57%
CN1N=C(C(=O)N2CCCC(C(=O)c3cccc(C(F)(F)F)c3)C2)CCC1=O (stereo unspecified)	inconclusive: 0.251 µM [inhibitor, full curve, poor fit]	–
O=C(c1cccc(S(=O)(=O)N2CCOCC2)c1)N(Cc1ccco1)Cc1cccs1	–	inactive: -23.2%
Nc1nnc(SCc2nc3scc(-c4ccccc4)c3c(=O)[nH]2)s1	inconclusive: 44.7 µM [inhibitor, partial curve]	–
CCn1c(=O)c(C(=O)NNC(=O)c2ccccc2Br)c(O)c2ccccc21	inconclusive: 31.6 µM [inhibitor, single point]	–
COC(=O)Cn1cc(/C=C/c2cc[n+](C)cc2)c2ccccc21	inconclusive: 25.1 µM [inhibitor, single point]	–
CCOC(=O)C1=C(CN(C)Cc2ccccc2)NC(=O)NC1c1ccc(OC(C)C)cc1 (stereo unspecified)	inconclusive: 35.5 µM [inhibitor, partial curve]	–
Cc1oc2c(c1C(=O)NCc1cccnc1)C(=O)c1ccccc1C2=O	inconclusive: 3.98 µM [inhibitor, full curve]	–
Cc1cccc(C(=O)Nc2sc3c(c2C(=O)Nc2ccccc2)CCC3)c1	inconclusive: 8.91 µM [inhibitor, partial curve]	–
O=[N+]([O-])c1ccc(CN2CCCCCC2)s1	inconclusive: 35.5 µM [inhibitor, partial curve, poor fit]	–
Cc1c(CNC(=O)C2CCC(=O)N(CCc3ccccc3)C2)cnn1C (stereo unspecified)	–	inactive: -6.5%

2 of the compounds above, field by field:
Cc1ccc(CNC(=O)C2CC(c3cccc([N+](=O)[O-])c3)=NO2)o1 (stereo unspecified)
  Potency: inconclusive: 44.7 µM [inhibitor, partial curve, poor fit]
COC(=O)c1c(NC(=O)COC(=O)c2ccc(Cl)cc2[N+](=O)[O-])sc2c1CCCCC2
  activity change, negative = inhibition: inactive: -6.57%

Continuation:

SMILES	Potency	activity change, negative = inhibition
C/C=C/C=C/C(=O)[C@@H]1[C@@H]([C@]2(C)OC(=O)C(C)=C2O)[C@H]2/C(=C(O)/C=C/C=C/C)C(=O)[C@]1(C)C(=O)C2(C)O (stereo partly specified)	inconclusive: 50.1 µM [inhibitor, partial curve, poor fit]	–
COc1ccc(CN(CC(=O)NCc2ccc(F)cc2)C(=O)c2ccco2)cc1	inconclusive: 7.08 µM [inhibitor, single point]	–
FC(F)(F)c1cc(CCN2C(=S)NC[C@@H]2c2ccccc2)cc(C(F)(F)F)c1	inconclusive: 0.708 µM [inhibitor, full curve, poor fit]	–
Cc1ccc(-c2csc3nc(CN(C)Cc4ccccc4)[nH]c(=O)c23)cc1	inconclusive: 50.1 µM [inhibitor, partial curve, poor fit]	–
N/C(=N\OC(=O)/C=C/c1ccccc1Cl)c1ccccn1	–	inactive: -28.3%
Cc1noc(C)c1NC(=O)Nc1cccc2c1O[C@@H](CN(C)C(=O)Nc1ccc3c(c1)OCO3)[C@@H](C)CN([C@H](C)CO)C2=O	inconclusive: 44.7 µM [inhibitor, partial curve, poor fit]	–
CC(=O)OC(/C(O)=C(\C#N)c1nc2ccccc2[nH]1)c1ccccc1 (stereo unspecified)	inconclusive: 35.5 µM [inhibitor, partial curve, poor fit]	–
CN(C)c1ccc(CNS(=O)(=O)c2csc(C(N)=O)c2)cc1	inconclusive: 11.2 µM [inhibitor, partial curve]	–
Cc1ccc(C(=O)NCCSc2ccc(Cl)cc2)cc1S(=O)(=O)Nc1ccccc1	inconclusive: 7.94 µM [inhibitor, single point]	–
O=C(OCc1ccccc1Cl)c1ccc(-n2cnnc2)cc1	–	inactive: -14.7%
CC(C)(C)c1ccc(OCc2cc(=O)n3c4c(sc3n2)CCCC4)cc1	inconclusive: 39.8 µM [inhibitor, partial curve]	–
CC(C)(C)c1ccc(-n2nc(C#N)c(Cl)cc2=O)cc1	–	inconclusive: -42.1% [inhibitor]
O=C(N/N=C/c1ccccc1F)C(=O)N1CCCCCC1	inconclusive: 15.8 µM [inhibitor, partial curve]	–
O=C(COc1cccc2cccnc12)Nc1cccc(S(=O)(=O)N2CCCC2)c1	inconclusive: 44.7 µM [inhibitor, partial curve]	–
O=C(NCCOc1ccccc1Cl)c1ncn[nH]1	inconclusive: 35.5 µM [inhibitor, partial curve, poor fit]	–
CCCSc1nc2c(c(=O)[nH]1)C(c1ccc(O)c(OCC)c1)CC(=O)N2 (stereo unspecified)	–	inactive: -2.91%
N#C/C(=C\c1ccc([N+](=O)[O-])o1)C(=O)Nc1ccc(F)cc1	–	inactive: -23.5%
COc1ccc(-c2cn[nH]c2-c2ccc(OCC(=O)NN)cc2O)cc1	–	inactive: -21.3%
CCOc1ccc(CSCCNC(=S)Nc2ccccc2)cc1	–	inactive: -12.1%
COc1ccc(-c2noc(CSc3nnc(C)n3-c3ccc(C)cc3)n2)cc1	inconclusive: 31.6 µM [inhibitor, partial curve, poor fit]	–
O=C(Nc1cc(Cl)ccc1O)c1cc2nc(-c3ccc4c(c3)OCO4)cc(C(F)(F)F)n2n1	–	inactive: -17.7%
CN(C)c1ccc(NC(=O)C2(c3cccs3)CCOCC2)cc1	inconclusive: 10 µM [inhibitor, partial curve, poor fit]	–

Grouped by structure, the compounds so far containing a furan ring, fused or not.
SMILES	Potency	activity change, negative = inhibition
Cc1nc2c(C)cccn2c(=O)c1NC(=O)c1ccco1	inconclusive: 39.8 µM [inhibitor, single point]	–
O=C(NCCNc1ccc([N+](=O)[O-])cc1)c1ccco1	inconclusive: 7.94 µM [inhibitor, partial curve, poor fit]	–
O=C(Nc1ccccc1-c1nc2ccccc2s1)c1ccco1	inconclusive: 15.8 µM [inhibitor, partial curve]	–
c1coc(-c2nnc(-c3ccco3)nn2)c1	active: 25.1 µM	–
Cc1ccc(CNC(=O)C2CC(c3cccc([N+](=O)[O-])c3)=NO2)o1 (stereo unspecified)	inconclusive: 44.7 µM [inhibitor, partial curve, poor fit]	–
O=C(c1cccc(S(=O)(=O)N2CCOCC2)c1)N(Cc1ccco1)Cc1cccs1	–	inactive: -23.2%
Cc1oc2c(c1C(=O)NCc1cccnc1)C(=O)c1ccccc1C2=O	inconclusive: 3.98 µM [inhibitor, full curve]	–
COc1ccc(CN(CC(=O)NCc2ccc(F)cc2)C(=O)c2ccco2)cc1	inconclusive: 7.08 µM [inhibitor, single point]	–
N#C/C(=C\c1ccc([N+](=O)[O-])o1)C(=O)Nc1ccc(F)cc1	–	inactive: -23.5%
